These are yes or no findings as the source states them, for the method shown. Binding seen in cells or lysates may run through a third protein. Some binding calls cover weakened binding; strength is not graded here. Tags and fused reporters may be left off the sequences shown.

The chains behind the UniProt entries cited, without tags or fusion partners.
UniProt O09106: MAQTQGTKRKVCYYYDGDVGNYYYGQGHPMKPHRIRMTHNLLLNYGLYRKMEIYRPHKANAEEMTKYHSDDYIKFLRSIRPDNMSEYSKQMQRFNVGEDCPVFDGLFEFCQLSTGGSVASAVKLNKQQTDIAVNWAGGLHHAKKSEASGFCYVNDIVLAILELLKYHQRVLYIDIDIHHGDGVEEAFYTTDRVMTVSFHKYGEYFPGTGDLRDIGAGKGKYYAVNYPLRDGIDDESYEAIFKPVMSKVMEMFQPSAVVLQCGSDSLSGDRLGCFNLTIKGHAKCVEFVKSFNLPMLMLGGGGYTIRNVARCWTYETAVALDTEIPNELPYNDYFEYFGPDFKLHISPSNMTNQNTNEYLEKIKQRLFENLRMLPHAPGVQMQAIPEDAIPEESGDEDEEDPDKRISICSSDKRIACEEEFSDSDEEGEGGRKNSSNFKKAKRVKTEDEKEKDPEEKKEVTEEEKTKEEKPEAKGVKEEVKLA

This assay deals with T1, Sin3 histone deacetylase corepressor complex component SDS3 (mouse (endogenous in BV2)) (UniProt Q8BR65).
T1 sequence: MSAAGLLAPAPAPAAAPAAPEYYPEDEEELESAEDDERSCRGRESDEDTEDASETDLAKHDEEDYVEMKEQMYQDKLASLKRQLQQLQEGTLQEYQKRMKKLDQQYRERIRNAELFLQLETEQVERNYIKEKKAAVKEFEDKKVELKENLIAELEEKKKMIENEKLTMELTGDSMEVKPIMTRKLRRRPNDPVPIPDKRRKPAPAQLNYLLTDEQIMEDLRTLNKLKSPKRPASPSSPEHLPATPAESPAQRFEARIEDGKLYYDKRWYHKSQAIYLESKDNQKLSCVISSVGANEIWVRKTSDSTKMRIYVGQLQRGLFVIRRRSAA
The experiment in a line: co-IP; immunoprecipitation with anti-SDS3 from BV2 cells, Western blotting for Sin3A and HDAC1; endogenous proteins. (In western blotting, separated proteins are transferred to a membrane and probed.)

For the molecule HDAC1 (from UniProt O09106 1-482), the binding result is reported as “binds”.

B1: paired amphipathic helix protein Sin3A (protein, UniProt Q60520 1-1274)
chain: MKRRLDDQESPVYAAQQRRIPGSTEAFSHQHRVLAPAPPVYEAVSETMQSATGIQYSVAPNYQVSAVPQSSGSHGPAIAAVHSSHHHPTAVQPHGGQVVQSHAHPAPPVAPVQGQQQFQRLKVEDALSYLDQVKLQFGSQPQVYNDFLDIMKEFKSQSIDTPGVISRVSQLFKGHPDLIMGFNTFLPPGYKIEVQTNDMVNVTTPGQVHQIPTHGIQPQPQPPPQHPSQPSSQSAPTPAQPAPQPTAAKVSKPSQLQAHTPASQQTPPLPPYASPRSPPVQPHTPVTISLGTAPSLQNNQPVEFNHAINYVNKIKNRFQGQPDIYKAFLEILHTYQKEQRNAKEAGGNYTPALTEQEVYAQVARLFKNQEDLLSEFGQFLPDANSSVLLSKTTAEKVDSVRNDHGGTVKKPQLNNKPQRPSQNGCQIRRHSGTGATPPVKKKPKLMSLKESSMADASKHGVGTESLFFDKVRKALRSAEAYENFLRCLVIFNQEVISRAELVQLVSPFLGKFPELFNWFKNFLGYKESVHLESFPKERATEGIAMEIDYASCKRLGSSYRALPKSYQQPKCTGRTPLCKEVLNDTWVSFPSWSEDSTFVSSKKTQYEEHIYRCEDERFELDVVLETNLATIRVLEAIQKKLSRLSAEEQAKFRLDNTLGGTSEVIHRKALQRIYADKAADIIDGLRKNPSIAVPIVLKRLKMKEEEWREAQRGFNKVWREQNEKYYLKSLDHQGINFKQNDTKVLRSKSLLNEIESIYDERQEQATEENAGVPVGPHLSLAYEDKQILEDAAALIIHHVKRQTGIQKEDKYKIKQIMHHFIPDLLFAQRGDLSDVEEEEEEEMDVDEATGAPKKHNGVGGSPPKSKLLFSNTAAQKLRGMDEVYNLFYVNNNWYIFMRLHQILCLRLLRICSQAERQIEEENREREWEREVLGIKRDKSDSPAIQLRLKEPMDVDVEDYYPAFLDMVRSLLDGNIDSSQYEDSLREMFTIHAYIAFTMDKLIQSIVRQLQHIVSDEVCVQVTDLYLAENNNGATGGQLNSQTSRSLLESAYQRKAEQLMSDENCFKLMFIQSQGQVQLTVELLDTEEENSDDPVEAERWSDYVERYMSSDTTSPELREHLAQKPVFLPRNLRRIRKCQRGREQQEKEGKEGNSKKTMENVESLDKLECRFKLNSYKMVYVIKSEDYMYRRTALLRAHQSHERVSKRLHQRFQAWVDKWTKEHVPREMAAETSKWLMGEGLEGLVPCTTTCDTETLHFVSINKYRVKYGTVFKAP
In the case of B1, the binding result is “binds”.

For the origin of these results see PMC11349808.
